Some of these results come from one statement about several compounds together.
Tests used:
Lucilia cuprina larvae = assay: Lucilia cuprina test (larvae in minced horse meat); type: in vivo; settings: application rate 100 ppm, after 2 days
Method: (§1) Solvent: dimethyl sulfoxide
To produce a suitable preparation of active compound, 10 mg of active compound are dissolved in 0.5 ml solvent, and the concentrate is diluted with water to the desired concentration. Approximately 20-30 (Lucilia cuprina larvae) are transferred into a test tube containing 1 cm^3 of minced horse meat and 0.5 ml aqueous dilution of test compound. After 2 days mortality in % is determined 100% means that all the larvae have been killed; 0% means that none of the larvae have been killed.

Ctenocephalides felis = Ctenocephalides felis test (CTECFE), blood feeding; type: in vivo; settings: application rate 100 ppm in cattle blood, adult fleas, after 2 days
Method: as §1
To produce a suitable preparation of active compound, 10 mg of active compound are dissolved in 0.5 ml solvent, and the concentrate is diluted with cattle blood to the desired concentration. Approximately 10 to 15 adult unfed (Ctenocepahlides felis) are placed in flea chambers. The blood chamber, are sealed with parafilm on the bottom are filled with cattle blood supplied with compound solution and placed on top of the flea chamber, so that the fleas are able to suck the blood. The blood chamber is heated to 37° C. whereas the flea chamber is kept at room temperature. After 2 days mortality in % is determined 100% means that all the fleas have been killed; 0% means that none of the fleas have been killed.

Compound	activity (mortality in %) (Lucilia cuprina larvae) [%]	activity (mortality in %) (Ctenocephalides felis) [%]
O=C(NCCC(F)(F)F)NCc1ccc(N2CCC(c3cc(Cl)cc(Cl)c3)(C(F)(F)F)C2)cc1C(F)(F)F (stereo not shown) [1-238]	100	100
COC(=O)NCc1ccc(N2CCC(c3cc(C(F)(F)F)cc(C(F)(F)F)c3)(C(F)(F)F)C2)cc1C(F)(F)F (stereo not shown) [1-298]	100	95
CCOC(=O)NCc1ccc(N2CCC(c3cc(C(F)(F)F)cc(C(F)(F)F)c3)(C(F)(F)F)C2)cc1C(F)(F)F (stereo not shown) [1-299]	100	100
CCCNC(=O)NCc1ccc(N2CCC(c3cc(C(F)(F)F)cc(C(F)(F)F)c3)(C(F)(F)F)C2)cc1C(F)(F)F (stereo not shown) [1-303]	100	100
CC(=O)NCc1ccc(N2CCC(c3cc(C(F)(F)F)cc(C(F)(F)F)c3)(C(F)(F)F)C2)cc1[N+](=O)[O-] (stereo not shown) [1-317]	100	100
CC(Br)C(=O)NCc1ccc(N2CCC(c3cc(Cl)cc(Cl)c3)(C(F)(F)F)C2)cc1Cl (stereo not shown) [1-458]	100	90
C=CCSCC(=O)NCc1ccc(N2CCC(c3cc(Cl)cc(Cl)c3)(C(F)(F)F)C2)cc1C(F)(F)F (stereo not shown) [1-503]	100	80
C=CCS(=O)(=O)CC(=O)NCc1ccc(N2CCC(c3cc(Cl)cc(Cl)c3)(C(F)(F)F)C2)cc1C(F)(F)F (stereo not shown) [1-505]	100	90
O=C(Cn1cncn1)NCc1ccc(N2CCC(c3cc(Cl)cc(Cl)c3)(C(F)(F)F)C2)cc1C(F)(F)F (stereo not shown) [1-558]	100	80
C=CCS(=O)(=O)CC(=O)NCc1ccc(N2CCC(c3cc(Cl)c(Cl)c(Cl)c3)(C(F)(F)F)C2)cc1C(F)(F)F (stereo not shown) [1-734]	100	80
C=CCSCC(=O)NCc1ccc(N2CCC(c3cc(C(F)(F)F)cc(C(F)(F)F)c3)(C(F)(F)F)C2)cc1C(F)(F)F (stereo not shown) [1-969]	100	95
C=CCS(=O)(=O)CC(=O)NCc1ccc(N2CCC(c3cc(C(F)(F)F)cc(C(F)(F)F)c3)(C(F)(F)F)C2)cc1C(F)(F)F (stereo not shown) [1-971]	100	95
O=C(NCc1ccccn1)c1cnc(N2CCC(c3cc(C(F)(F)F)cc(C(F)(F)F)c3)(C(F)(F)F)C2)nc1C(F)(F)F (stereo not shown) [2-35]	100	100
CCNC(=O)NCc1cnc(N2CCC(c3cc(Cl)c(Cl)c(Cl)c3)(C(F)(F)F)C2)nc1C(F)(F)F (stereo not shown) [3-145]	100	95
O=C(NCC(F)(F)F)c1sc(N2CCC(c3cc(Cl)c(Cl)c(Cl)c3)(C(F)(F)F)C2)nc1C(F)(F)F (stereo not shown) [4-21]	100	100
O=C(NCc1ccccn1)c1sc(N2CCC(c3cc(Cl)c(Cl)c(Cl)c3)(C(F)(F)F)C2)nc1C(F)(F)F (stereo not shown) [4-22]	100	80
O=C(NCC(F)(F)F)c1sc(N2CCC(c3cc(C(F)(F)F)cc(C(F)(F)F)c3)(C(F)(F)F)C2)nc1C(F)(F)F (stereo not shown) [4-34]	100	95
O=C(NCc1ccccn1)c1sc(N2CCC(c3cc(C(F)(F)F)cc(C(F)(F)F)c3)(C(F)(F)F)C2)nc1C(F)(F)F (stereo not shown) [4-35]	100	90
CCC(=O)NCc1sc(N2CCC(c3cc(Cl)cc(Cl)c3)(C(F)(F)F)C2)nc1C(F)(F)F (stereo not shown) [5-4]	100	80
O=C(CC(F)(F)F)NCc1sc(N2CCC(c3cc(Cl)cc(Cl)c3)(C(F)(F)F)C2)nc1C(F)(F)F (stereo not shown) [5-22]	100	80

Source: US9266830B2, “Pesticidal arylpyrrolidines” (Bayer Intellectual Property GmbH, priority 2007, dated 2016)
